# Measured values from patent US20100324829A1, “METHOD OF SELECTING HLA-DP4 LIGANDS AND THE APPLICATIONS THEREOF” (priority 2001, published 2010).
# Numbering of substitutions follows the chain as printed. At least one peptide structure holds a part that was inferred or is arguable (an end, a ring closure or a residue).
# Key:
# [1] = target: T1, HLA-DP4 molecule DPA1*0103/DPB1*0401 (DP401) (Homo sapiens, UniProt P04440+P20036); assay type: binding; details: FIG. 1, in words; tracer bUNK1 10 nM
# T1 construct: purified from various human B lymphocyte lines transformed with the Epstein Barr virus (EBV), which are homozygotes for DP; endogenous in cells
# T1 sequence (P20036 29-260): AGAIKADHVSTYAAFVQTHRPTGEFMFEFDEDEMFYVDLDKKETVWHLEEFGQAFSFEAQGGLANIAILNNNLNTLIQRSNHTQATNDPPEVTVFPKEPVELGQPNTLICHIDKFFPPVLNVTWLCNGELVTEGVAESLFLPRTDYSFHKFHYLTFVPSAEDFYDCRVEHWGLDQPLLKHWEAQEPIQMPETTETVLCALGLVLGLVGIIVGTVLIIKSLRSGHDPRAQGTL
# T1 sequence (P04440 30-258): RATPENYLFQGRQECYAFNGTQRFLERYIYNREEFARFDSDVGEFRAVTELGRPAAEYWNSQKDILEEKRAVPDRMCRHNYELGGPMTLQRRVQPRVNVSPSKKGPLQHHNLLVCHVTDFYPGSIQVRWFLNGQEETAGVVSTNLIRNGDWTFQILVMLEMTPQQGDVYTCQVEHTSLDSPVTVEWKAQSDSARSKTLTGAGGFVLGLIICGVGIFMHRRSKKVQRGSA
# [2] = target: T2, HLA-DP4 molecule DPA1*0103/DPB1*0402 (DP402) (Homo sapiens, UniProt P04440+P20036, A65V/A84D/A85E/L207M); assay type: binding; details: FIG. 1, in words; tracer bUNK1 10 nM
# T2 construct: purified from various human B lymphocyte lines transformed with the Epstein Barr virus (EBV), which are homozygotes for DP; endogenous in cells
# T2 sequence (P20036 29-260): T1 sequence (P20036 29-260)
# T2 sequence (P04440 30-258 A65V/A84D/A85E): T1 sequence (P04440 30-258) with A36V, A55D, A56E
structure (smiles),measurement,setting,value
"CC[C@H](C)[C@H](NC(=O)[C@H](CCCCN)NC(=O)[C@H](CC(C)C)NC(=O)[C@H](Cc1ccccc1)NC(=O)[C@H](CCCNC(=N)N)NC(=O)[C@H](CCC(=O)O)NC(=O)CNC(=O)[C@H](CO)NC(=O)[C@H](CCCNC(=N)N)NC(=O)[C@@H](NC(=O)[C@H](CCC(N)=O)NC(=O)[C@H](CCCNC(=N)N)NC(=O)[C@@H](NC(=O)[C@@H](NC(=O)[C@H](CCC(N)=O)NC(=O)[C@@H](NC(=O)CN)C(C)C)[C@@H](C)CC)C(C)C)[C@@H](C)CC)C(=O)N[C@@H](Cc1c[nH]c2ccccc12)C(=O)N[C@@H](CO)C(=O)N[C@@H](CCC(N)=O)C(=O)O [NS-p2, reference compound]",binding to the HLA-DP*0401 molecule,[1],effectively bind
same,binding to the HLA-DP*0402 molecule,[2],effectively bind
